Data source: PubChem BioAssay AID720705 (Peter MacCallum Cancer Centre, 2013)
The whole screen tested 200 reagents; this is an unselected part. In the full data, 116 (58%) are marked active. 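Negative fold changes mean less ERK phosphorylation; hits count in both directions; calls are per gene.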 Entries without a mark were called inactive. The numbers tell different reagents against one gene apart. Reagent sequences are not shown.

Purpose: 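Retest of 50 candidate kinases for effects on angiotensin II–triggered EGFR signalling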 (follow-up of hits)
Cell system: human HMEC-LST-AT1R mammary epithelial cells
Reagents: single siRNA against human genes, 25 nM per duplex
Duration: 72 h after transfection
Conditions: angiotensin II stimulation; dose and duration not given
Measurement: 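Signed fold change in phospho-ERK1/2 (AlphaScreen SureFire bead assay) after angiotensin II, relative to the average of mock and GFP siRNA controls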
Reading the numbers: duplexes agreeing on an effect (of 4): higher = more duplexes of this gene agree on an effect; signed phospho-ERK fold change vs controls: higher = more ERK phosphorylation than controls; negative values are decreases
Hit rule: 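Gene called active when two or more of its four siRNAs each shift ERK phosphorylation beyond 1.5-fold the same way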
Meaning of the calls: active = high/medium confidence (2-4 of 4 duplexes); inactive = low confidence (0-1 of 4 duplexes)

Which result is listed for CSNK1G1 (casein kinase 1 gamma 1) #1?
duplexes agreeing on an effect (of 4): 1; signed phospho-ERK fold change vs controls: -1.18

With CSNK1G1 (casein kinase 1 gamma 1) #2, what was measured?
duplexes agreeing on an effect (of 4): 1; signed phospho-ERK fold change vs controls: 1.76

Which result is listed for CSNK1G1 (casein kinase 1 gamma 1) #3?
duplexes agreeing on an effect (of 4): 1; signed phospho-ERK fold change vs controls: -1.48

What is on record for CSNK1G1 (casein kinase 1 gamma 1) #4?
duplexes agreeing on an effect (of 4): 1; signed phospho-ERK fold change vs controls: -1.13

For CDK5 (cyclin dependent kinase 5) #1, what was measured?
duplexes agreeing on an effect (of 4): 2 (active); signed phospho-ERK fold change vs controls: -1.34

For CDK5 (cyclin dependent kinase 5) #2, what does the deposit list?
duplexes agreeing on an effect (of 4): 2 (active); signed phospho-ERK fold change vs controls: 1.42

What is on record for CDK5 (cyclin dependent kinase 5) #3?
duplexes agreeing on an effect (of 4): 2 (active); signed phospho-ERK fold change vs controls: -1.82

Which result is listed for CDK5 (cyclin dependent kinase 5) #4?
duplexes agreeing on an effect (of 4): 2 (active); signed phospho-ERK fold change vs controls: -1.8

With BMX (BMX non-receptor tyrosine kinase) #1, what does the deposit list?
duplexes agreeing on an effect (of 4): 3 (active); signed phospho-ERK fold change vs controls: 1.88

Which result is listed for BMX (BMX non-receptor tyrosine kinase) #2?
duplexes agreeing on an effect (of 4): 3 (active); signed phospho-ERK fold change vs controls: -1.89

How did the screen score BMX (BMX non-receptor tyrosine kinase) #3?
duplexes agreeing on an effect (of 4): 3 (active); signed phospho-ERK fold change vs controls: -2.27

For BMX (BMX non-receptor tyrosine kinase) #4, how do the results read?
duplexes agreeing on an effect (of 4): 3 (active); signed phospho-ERK fold change vs controls: -2.47

For HIPK3 (homeodomain interacting protein kinase 3) #1, what was measured?
duplexes agreeing on an effect (of 4): 1; signed phospho-ERK fold change vs controls: -1.17

How did the screen score HIPK3 (homeodomain interacting protein kinase 3) #2?
duplexes agreeing on an effect (of 4): 1; signed phospho-ERK fold change vs controls: 1.05

Which result is listed for HIPK3 (homeodomain interacting protein kinase 3) #3?
duplexes agreeing on an effect (of 4): 1; signed phospho-ERK fold change vs controls: 1.26

What is on record for HIPK3 (homeodomain interacting protein kinase 3) #4?
duplexes agreeing on an effect (of 4): 1; signed phospho-ERK fold change vs controls: 2.55

What is on record for DGKH (diacylglycerol kinase eta) #1?
duplexes agreeing on an effect (of 4): 2 (active); signed phospho-ERK fold change vs controls: -1.59

With DGKH (diacylglycerol kinase eta) #2, how do the results read?
duplexes agreeing on an effect (of 4): 2 (active); signed phospho-ERK fold change vs controls: -0.085

With DGKH (diacylglycerol kinase eta) #3, how do the results read?
duplexes agreeing on an effect (of 4): 2 (active); signed phospho-ERK fold change vs controls: -1.31

With DGKH (diacylglycerol kinase eta) #4, how do the results read?
duplexes agreeing on an effect (of 4): 2 (active); signed phospho-ERK fold change vs controls: -2.68

How did the screen score FES (FES proto-oncogene, tyrosine kinase) #1?
duplexes agreeing on an effect (of 4): 3 (active); signed phospho-ERK fold change vs controls: -2.62

With FES (FES proto-oncogene, tyrosine kinase) #2, what does the deposit list?
duplexes agreeing on an effect (of 4): 3 (active); signed phospho-ERK fold change vs controls: 1.2

What did the screen give for FES (FES proto-oncogene, tyrosine kinase) #3?
duplexes agreeing on an effect (of 4): 3 (active); signed phospho-ERK fold change vs controls: -2.23

With FES (FES proto-oncogene, tyrosine kinase) #4, how do the results read?
duplexes agreeing on an effect (of 4): 3 (active); signed phospho-ERK fold change vs controls: -2.51

For PIKFYVE (phosphoinositide kinase, FYVE-type zinc finger containing) #1, how do the results read?
duplexes agreeing on an effect (of 4): 2 (active); signed phospho-ERK fold change vs controls: 1.42

For PIKFYVE (phosphoinositide kinase, FYVE-type zinc finger containing) #2, how do the results read?
duplexes agreeing on an effect (of 4): 2 (active); signed phospho-ERK fold change vs controls: -0.019

What is on record for PIKFYVE (phosphoinositide kinase, FYVE-type zinc finger containing) #3?
duplexes agreeing on an effect (of 4): 2 (active); signed phospho-ERK fold change vs controls: -1.56

With PIKFYVE (phosphoinositide kinase, FYVE-type zinc finger containing) #4, what does the deposit list?
duplexes agreeing on an effect (of 4): 2 (active); signed phospho-ERK fold change vs controls: -1.63

Copied from the listing for reference:
BMX (BMX non-receptor tyrosine kinase) #2 | duplexes agreeing on an effect (of 4): 3 (active); signed phospho-ERK fold change vs controls: -1.89
BMX (BMX non-receptor tyrosine kinase) #3 | duplexes agreeing on an effect (of 4): 3 (active); signed phospho-ERK fold change vs controls: -2.27
BMX (BMX non-receptor tyrosine kinase) #4 | duplexes agreeing on an effect (of 4): 3 (active); signed phospho-ERK fold change vs controls: -2.47
HIPK3 (homeodomain interacting protein kinase 3) #1 | duplexes agreeing on an effect (of 4): 1; signed phospho-ERK fold change vs controls: -1.17
HIPK3 (homeodomain interacting protein kinase 3) #2 | duplexes agreeing on an effect (of 4): 1; signed phospho-ERK fold change vs controls: 1.05
HIPK3 (homeodomain interacting protein kinase 3) #3 | duplexes agreeing on an effect (of 4): 1; signed phospho-ERK fold change vs controls: 1.26
HIPK3 (homeodomain interacting protein kinase 3) #4 | duplexes agreeing on an effect (of 4): 1; signed phospho-ERK fold change vs controls: 2.55

Next records:
Which result is listed for CHKA (choline kinase alpha) #1?
duplexes agreeing on an effect (of 4): 4 (active); signed phospho-ERK fold change vs controls: -1.86

How did the screen score CHKA (choline kinase alpha) #2?
duplexes agreeing on an effect (of 4): 4 (active); signed phospho-ERK fold change vs controls: -2.02

What is on record for CHKA (choline kinase alpha) #3?
duplexes agreeing on an effect (of 4): 4 (active); signed phospho-ERK fold change vs controls: -1.78

What did the screen give for CHKA (choline kinase alpha) #4?
duplexes agreeing on an effect (of 4): 4 (active); signed phospho-ERK fold change vs controls: -3.02

Which result is listed for DLG1 (discs large MAGUK scaffold protein 1) #1?
duplexes agreeing on an effect (of 4): 1; signed phospho-ERK fold change vs controls: -2.2

What is on record for DLG1 (discs large MAGUK scaffold protein 1) #2?
duplexes agreeing on an effect (of 4): 1; signed phospho-ERK fold change vs controls: -1.27

For DLG1 (discs large MAGUK scaffold protein 1) #3, what does the deposit list?
duplexes agreeing on an effect (of 4): 1; signed phospho-ERK fold change vs controls: 1.23

For DLG1 (discs large MAGUK scaffold protein 1) #4, how do the results read?
duplexes agreeing on an effect (of 4): 1; signed phospho-ERK fold change vs controls: 1.28

Which result is listed for CRKL (CRK like proto-oncogene, adaptor protein) #1?
duplexes agreeing on an effect (of 4): 1; signed phospho-ERK fold change vs controls: -1.93

With CRKL (CRK like proto-oncogene, adaptor protein) #2, what does the deposit list?
duplexes agreeing on an effect (of 4): 1; signed phospho-ERK fold change vs controls: 0.102

What did the screen give for CRKL (CRK like proto-oncogene, adaptor protein) #3?
duplexes agreeing on an effect (of 4): 1; signed phospho-ERK fold change vs controls: 0.055

How did the screen score CRKL (CRK like proto-oncogene, adaptor protein) #4?
duplexes agreeing on an effect (of 4): 1; signed phospho-ERK fold change vs controls: 0.038

What is on record for ERBB2 (erb-b2 receptor tyrosine kinase 2) #1?
duplexes agreeing on an effect (of 4): 4 (active); signed phospho-ERK fold change vs controls: -2.78

With ERBB2 (erb-b2 receptor tyrosine kinase 2) #2, what was measured?
duplexes agreeing on an effect (of 4): 4 (active); signed phospho-ERK fold change vs controls: -1.86

For ERBB2 (erb-b2 receptor tyrosine kinase 2) #3, what does the deposit list?
duplexes agreeing on an effect (of 4): 4 (active); signed phospho-ERK fold change vs controls: -1.5

How did the screen score ERBB2 (erb-b2 receptor tyrosine kinase 2) #4?
duplexes agreeing on an effect (of 4): 4 (active); signed phospho-ERK fold change vs controls: -1.59

How did the screen score PIP5K1B (phosphatidylinositol-4-phosphate 5-kinase type 1 beta) #1?
duplexes agreeing on an effect (of 4): 1; signed phospho-ERK fold change vs controls: 2.42

How did the screen score PIP5K1B (phosphatidylinositol-4-phosphate 5-kinase type 1 beta) #2?
duplexes agreeing on an effect (of 4): 1; signed phospho-ERK fold change vs controls: -1.58

For PIP5K1B (phosphatidylinositol-4-phosphate 5-kinase type 1 beta) #3, what does the deposit list?
duplexes agreeing on an effect (of 4): 1; signed phospho-ERK fold change vs controls: 1.12

Which result is listed for PIP5K1B (phosphatidylinositol-4-phosphate 5-kinase type 1 beta) #4?
duplexes agreeing on an effect (of 4): 1; signed phospho-ERK fold change vs controls: 1.16

What did the screen give for FGFR3 (fibroblast growth factor receptor 3) #1?
duplexes agreeing on an effect (of 4): 2 (active); signed phospho-ERK fold change vs controls: -0.106

Which result is listed for FGFR3 (fibroblast growth factor receptor 3) #2?
duplexes agreeing on an effect (of 4): 2 (active); signed phospho-ERK fold change vs controls: -1.57

For FGFR3 (fibroblast growth factor receptor 3) #3, how do the results read?
duplexes agreeing on an effect (of 4): 2 (active); signed phospho-ERK fold change vs controls: -3.69

What is on record for FGFR3 (fibroblast growth factor receptor 3) #4?
duplexes agreeing on an effect (of 4): 2 (active); signed phospho-ERK fold change vs controls: 1.28
